# Experimental data as given in patent publication CN116724055A.
# Results are given in words; binding and its absence hold for the method and conditions named. Some results given as binding are weak or reduced against the parent protein; the word gives no strength.
# Target: 重组mfIL1RAP aa21-367 (食蟹猴 (Macaca fascicularis))
# Assay: binding ELISA, coated mfIL1RAP aa21-367
row,binding,Binder
1,binds,"h48D2 VH5:VL2 (antibody, human IgG1, kappa, L234A L235A, V domains shown) VH: QEQLEESGGGLVKPGGTLSLTCTVSGPSLSHFDITWIRQAPGSGLEWIGTISPGVSTYYASWAKSRVTISVDTSLNTVSLKLSSVTAADTATYFCARGGVGSSWKAFDLWGPGTLVTISS VL: QIVLTQSPATLSASVGDRVTITCQASESISTALAWYQQKPGKAPKLLIYKASTLPSGVPSRFSGSGSGTEFTLTISSLQPDDSATYYCQQGFSSGNVHNAFGQGTKLEIKR"
2,binds,"h48D2 VH5:VL1 (antibody, human IgG1, kappa, L234A L235A, V domains shown) VH: QEQLEESGGGLVKPGGTLSLTCTVSGPSLSHFDITWIRQAPGSGLEWIGTISPGVSTYYASWAKSRVTISVDTSLNTVSLKLSSVTAADTATYFCARGGVGSSWKAFDLWGPGTLVTISS VL: DIVMTQSPSSLSASVGDRVTITCQASESISTALAWYQQKPGKAPKLLIYKASTLPSGVPSRFSGSGSGTDFTLTISSLQPEDFATYYCQQGFSSGNVHNAFGGGTKVVIKR"
3,binds,"h48D2 VH4:VL4 (antibody, human IgG1, kappa, L234A L235A, V domains shown) VH: QVQLQESGPGLVKPSETLSLTCTVSGPSLSHFDITWIRQPPGKGLEWIGTISPGVSTYYASWAKSRFTISVDTSKNQFSLKLTSVTAADTATYYCARGGVGSSWKAFDLWGPGTLVTVSS VL: ELVMTQSPSSVSASVGDRVTITCQASESISTALAWYQQKPGKAPKLLIYKASTLPSGVPSRFSGSGSGTDFTLTINSLQPEDFATYYCQQGFSSGNVHNAFGGGTKVEIKR"
4,binds,"h48D2 VH5.SK:VL4 (antibody, human IgG1, kappa, L234A L235A, V domains shown) VH: QEQLEESGGGLVKPGGTLSLTCTVSGPSLSHFDITWIRQAPGKGLEWIGTISPGVSTYYASWAKSRVTISVDTSLNTVSLKLSSVTAADTATYFCARGGVGSSWKAFDLWGPGTLVTISS VL: ELVMTQSPSSVSASVGDRVTITCQASESISTALAWYQQKPGKAPKLLIYKASTLPSGVPSRFSGSGSGTDFTLTINSLQPEDFATYYCQQGFSSGNVHNAFGGGTKVEIKR"
5,binds,"h48D2 VH5.AP:VL4 (antibody, human IgG1, kappa, L234A L235A, V domains shown) VH: QEQLEESGGGLVKPGGTLSLTCTVSGPSLSHFDITWIRQPPGSGLEWIGTISPGVSTYYASWAKSRVTISVDTSLNTVSLKLSSVTAADTATYFCARGGVGSSWKAFDLWGPGTLVTISS VL: ELVMTQSPSSVSASVGDRVTITCQASESISTALAWYQQKPGKAPKLLIYKASTLPSGVPSRFSGSGSGTDFTLTINSLQPEDFATYYCQQGFSSGNVHNAFGGGTKVEIKR"
6,binds,"h48D2 VH4:VL5 (antibody, human IgG1, kappa, L234A L235A, V domains shown) VH: QVQLQESGPGLVKPSETLSLTCTVSGPSLSHFDITWIRQPPGKGLEWIGTISPGVSTYYASWAKSRFTISVDTSKNQFSLKLTSVTAADTATYYCARGGVGSSWKAFDLWGPGTLVTVSS VL: APVLTQSPATLEASVGDRVTITCQASESISTALAWYQQKPGQPPKLLIYKASTLPSGVPSRFSGSGSGTEFTLTISDLESDDAATYYCQQGFSSGNVHNAFGGGTEVVVKR"
7,binds,"h48D2 VH5:VL3 (antibody, human IgG1, kappa, L234A L235A, V domains shown) VH: QEQLEESGGGLVKPGGTLSLTCTVSGPSLSHFDITWIRQAPGSGLEWIGTISPGVSTYYASWAKSRVTISVDTSLNTVSLKLSSVTAADTATYFCARGGVGSSWKAFDLWGPGTLVTISS VL: DILLTQTPSVVSASVGDRVTITCQASESISTALAWYQQKPGQAPRLLIYKASTLPSGVPSRFRGSGSGTDFTLTITSLQPEDFATYYCQQGFSSGNVHNAFGGGTRLEIKR"
8,binds,"h48D2 VH4:VL3 (antibody, human IgG1, kappa, L234A L235A, V domains shown) VH: QVQLQESGPGLVKPSETLSLTCTVSGPSLSHFDITWIRQPPGKGLEWIGTISPGVSTYYASWAKSRFTISVDTSKNQFSLKLTSVTAADTATYYCARGGVGSSWKAFDLWGPGTLVTVSS VL: DILLTQTPSVVSASVGDRVTITCQASESISTALAWYQQKPGQAPRLLIYKASTLPSGVPSRFRGSGSGTDFTLTITSLQPEDFATYYCQQGFSSGNVHNAFGGGTRLEIKR"

# The remaining lines, values behind:
row,Binder,binding
1,"h48D2 VH2:VL2 (antibody, human IgG1, kappa, L234A L235A, V domains shown) VH: EVQLVESGGALVQPGGSLRLSCIVSGPSLSHFDITWFRQAPGKGLEWVATISPGVSTYYASWAKSRFTISTDTSKNTLFLQMDSLRAEDTAVYYCARGGVGSSWKAFDLWGPGTLVTVSS VL: QIVLTQSPATLSASVGDRVTITCQASESISTALAWYQQKPGKAPKLLIYKASTLPSGVPSRFSGSGSGTEFTLTISSLQPDDSATYYCQQGFSSGNVHNAFGQGTKLEIKR",binds
2,"h48D2 VH3:VL1 (antibody, human IgG1, kappa, L234A L235A, V domains shown) VH: EVQLLESGGGLVLPGGSLRLSCAASGPSLSHFDITWVRQAPGKGLEWVSTISPGVSTYYASWAKSRFTISRDNSKNTLYLQMSSLRAEDTAVYYCARGGVGSSWKAFDLWGLGTTVTVSS VL: DIVMTQSPSSLSASVGDRVTITCQASESISTALAWYQQKPGKAPKLLIYKASTLPSGVPSRFSGSGSGTDFTLTISSLQPEDFATYYCQQGFSSGNVHNAFGGGTKVVIKR",binds
3,"h48D2 VH3:VL2 (antibody, human IgG1, kappa, L234A L235A, V domains shown) VH: EVQLLESGGGLVLPGGSLRLSCAASGPSLSHFDITWVRQAPGKGLEWVSTISPGVSTYYASWAKSRFTISRDNSKNTLYLQMSSLRAEDTAVYYCARGGVGSSWKAFDLWGLGTTVTVSS VL: QIVLTQSPATLSASVGDRVTITCQASESISTALAWYQQKPGKAPKLLIYKASTLPSGVPSRFSGSGSGTEFTLTISSLQPDDSATYYCQQGFSSGNVHNAFGQGTKLEIKR",binds
4,"h48D2 VH2:VL4 (antibody, human IgG1, kappa, L234A L235A, V domains shown) VH: EVQLVESGGALVQPGGSLRLSCIVSGPSLSHFDITWFRQAPGKGLEWVATISPGVSTYYASWAKSRFTISTDTSKNTLFLQMDSLRAEDTAVYYCARGGVGSSWKAFDLWGPGTLVTVSS VL: ELVMTQSPSSVSASVGDRVTITCQASESISTALAWYQQKPGKAPKLLIYKASTLPSGVPSRFSGSGSGTDFTLTINSLQPEDFATYYCQQGFSSGNVHNAFGGGTKVEIKR",binds
5,"h48D2 VH1:VL1 (antibody, human IgG1, kappa, L234A L235A, V domains shown) VH: EVQLEESGGGLVKPGGSLRLSCAASGPSLSHFDITWVRQAPGKGLEWVSTISPGVSTYYASWAKSRFTISRDNSKNTLYLQMNSLRAEDTAVYYCARGGVGSSWKAFDLWGRGTLVTVSS VL: DIVMTQSPSSLSASVGDRVTITCQASESISTALAWYQQKPGKAPKLLIYKASTLPSGVPSRFSGSGSGTDFTLTISSLQPEDFATYYCQQGFSSGNVHNAFGGGTKVVIKR",binds
6,"h48D2 VH4:VL2 (antibody, human IgG1, kappa, L234A L235A, V domains shown) VH: QVQLQESGPGLVKPSETLSLTCTVSGPSLSHFDITWIRQPPGKGLEWIGTISPGVSTYYASWAKSRFTISVDTSKNQFSLKLTSVTAADTATYYCARGGVGSSWKAFDLWGPGTLVTVSS VL: QIVLTQSPATLSASVGDRVTITCQASESISTALAWYQQKPGKAPKLLIYKASTLPSGVPSRFSGSGSGTEFTLTISSLQPDDSATYYCQQGFSSGNVHNAFGQGTKLEIKR",binds
7,"h48D2 VH4:VL1 (antibody, human IgG1, kappa, L234A L235A, V domains shown) VH: QVQLQESGPGLVKPSETLSLTCTVSGPSLSHFDITWIRQPPGKGLEWIGTISPGVSTYYASWAKSRFTISVDTSKNQFSLKLTSVTAADTATYYCARGGVGSSWKAFDLWGPGTLVTVSS VL: DIVMTQSPSSLSASVGDRVTITCQASESISTALAWYQQKPGKAPKLLIYKASTLPSGVPSRFSGSGSGTDFTLTISSLQPEDFATYYCQQGFSSGNVHNAFGGGTKVVIKR",binds
8,"h48D2 VH2:VL3 (antibody, human IgG1, kappa, L234A L235A, V domains shown) VH: EVQLVESGGALVQPGGSLRLSCIVSGPSLSHFDITWFRQAPGKGLEWVATISPGVSTYYASWAKSRFTISTDTSKNTLFLQMDSLRAEDTAVYYCARGGVGSSWKAFDLWGPGTLVTVSS VL: DILLTQTPSVVSASVGDRVTITCQASESISTALAWYQQKPGQAPRLLIYKASTLPSGVPSRFRGSGSGTDFTLTITSLQPEDFATYYCQQGFSSGNVHNAFGGGTRLEIKR",binds
9,"h48D2 VH1:VL2 (antibody, human IgG1, kappa, L234A L235A, V domains shown) VH: EVQLEESGGGLVKPGGSLRLSCAASGPSLSHFDITWVRQAPGKGLEWVSTISPGVSTYYASWAKSRFTISRDNSKNTLYLQMNSLRAEDTAVYYCARGGVGSSWKAFDLWGRGTLVTVSS VL: QIVLTQSPATLSASVGDRVTITCQASESISTALAWYQQKPGKAPKLLIYKASTLPSGVPSRFSGSGSGTEFTLTISSLQPDDSATYYCQQGFSSGNVHNAFGQGTKLEIKR",binds
10,"h48D2 VH2:VL5 (antibody, human IgG1, kappa, L234A L235A, V domains shown) VH: EVQLVESGGALVQPGGSLRLSCIVSGPSLSHFDITWFRQAPGKGLEWVATISPGVSTYYASWAKSRFTISTDTSKNTLFLQMDSLRAEDTAVYYCARGGVGSSWKAFDLWGPGTLVTVSS VL: APVLTQSPATLEASVGDRVTITCQASESISTALAWYQQKPGQPPKLLIYKASTLPSGVPSRFSGSGSGTEFTLTISDLESDDAATYYCQQGFSSGNVHNAFGGGTEVVVKR",binds
11,"h48D2 VH3:VL3 (antibody, human IgG1, kappa, L234A L235A, V domains shown) VH: EVQLLESGGGLVLPGGSLRLSCAASGPSLSHFDITWVRQAPGKGLEWVSTISPGVSTYYASWAKSRFTISRDNSKNTLYLQMSSLRAEDTAVYYCARGGVGSSWKAFDLWGLGTTVTVSS VL: DILLTQTPSVVSASVGDRVTITCQASESISTALAWYQQKPGQAPRLLIYKASTLPSGVPSRFRGSGSGTDFTLTITSLQPEDFATYYCQQGFSSGNVHNAFGGGTRLEIKR",binds
12,"h48D2 VH3:VL5 (antibody, human IgG1, kappa, L234A L235A, V domains shown) VH: EVQLLESGGGLVLPGGSLRLSCAASGPSLSHFDITWVRQAPGKGLEWVSTISPGVSTYYASWAKSRFTISRDNSKNTLYLQMSSLRAEDTAVYYCARGGVGSSWKAFDLWGLGTTVTVSS VL: APVLTQSPATLEASVGDRVTITCQASESISTALAWYQQKPGQPPKLLIYKASTLPSGVPSRFSGSGSGTEFTLTISDLESDDAATYYCQQGFSSGNVHNAFGGGTEVVVKR",binds
13,"h48D2 VH1:VL3 (antibody, human IgG1, kappa, L234A L235A, V domains shown) VH: EVQLEESGGGLVKPGGSLRLSCAASGPSLSHFDITWVRQAPGKGLEWVSTISPGVSTYYASWAKSRFTISRDNSKNTLYLQMNSLRAEDTAVYYCARGGVGSSWKAFDLWGRGTLVTVSS VL: DILLTQTPSVVSASVGDRVTITCQASESISTALAWYQQKPGQAPRLLIYKASTLPSGVPSRFRGSGSGTDFTLTITSLQPEDFATYYCQQGFSSGNVHNAFGGGTRLEIKR",binds
14,"h48D2 VH3:VL4 (antibody, human IgG1, kappa, L234A L235A, V domains shown) VH: EVQLLESGGGLVLPGGSLRLSCAASGPSLSHFDITWVRQAPGKGLEWVSTISPGVSTYYASWAKSRFTISRDNSKNTLYLQMSSLRAEDTAVYYCARGGVGSSWKAFDLWGLGTTVTVSS VL: ELVMTQSPSSVSASVGDRVTITCQASESISTALAWYQQKPGKAPKLLIYKASTLPSGVPSRFSGSGSGTDFTLTINSLQPEDFATYYCQQGFSSGNVHNAFGGGTKVEIKR",binds
